Values from PubChem BioAssay AID504774 (Drosophila RNAi Screening Center, 2011).
The deposit covers about 23,000 reagents; shown is an unselected part of those with a known target gene and a result. 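Values are quantile-normalised luminescence on an arbitrary scale; higher means more cells surviving MMS.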 Reagents against one gene are numbered here. Reagent sequences are not shown.

Aim: 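Fly genes whose loss alters survival after alkylation damage to DNA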 (primary screen)
Cells: Drosophila Kc167 cells
Reagent: long dsRNA against Drosophila genes, about 0.25 µg dsRNA per well
Time to read-out: about 6 days: 3 days knock-down, then 3 days with or without MMS
Treatment: methyl methanesulphonate 0.004% (w/v) for 3 days after knock-down
Read-out: 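Viability in wells given MMS, read as ATP luminescence, normalised by quantiles plate by plate and averaged across replicates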
Scale: mean viability with MMS and viability with MMS: higher = more surviving cells after MMS

Target gene	reagent	mean viability with MMS	viability with MMS, replicate 1	viability with MMS, replicate 2
CG31407 (GeneID 318716)	1	3.52e6	4.13e6	3.87e6
CG11456 (GeneID 40309)	1	3.60e6	4.12e6	4.04e6
Bbd (GeneID 37314)	1	3.45e6	3.97e6	3.82e6
Trax (GeneID 41871)	1	3.35e6	3.81e6	3.74e6
CG13603 (GeneID 42838)	1	3.56e6	4.02e6	4.07e6
Rab23 (GeneID 40701)	1	3.63e6	4.20e6	4.02e6
RpS14a (GeneID 47218)	1	2.95e6	3.42e6	3.53e6
CG13443 (GeneID 37351)	1	3.67e6	4.17e6	4.10e6
Tsp42Eo (GeneID 35625)	1	3.58e6	4.03e6	4.07e6
fj (GeneID 37089)	1	3.62e6	4.08e6	4.11e6
CG13800 (retired record) (GeneID 38305)	1	3.61e6	4.10e6	4.06e6
CG12945 (GeneID 41204)	1	3.45e6	3.92e6	3.93e6
nAChRalpha1 (GeneID 42918)	1	3.40e6	3.88e6	3.81e6
nAChRalpha1 (GeneID 42918)	2	2.87e6	3.57e6	3.57e6
nAChRalpha1 (GeneID 42918)	3	3.52e6	3.85e6	4.14e6
nAChRalpha1 (GeneID 42918)	4	3.43e6	3.79e6	3.94e6
CG33137 (GeneID 36449)	1	3.57e6	4.01e6	4.05e6
Np (GeneID 35904)	1	3.55e6	4.07e6	3.98e6
Np (GeneID 35904)	2	3.72e6	4.18e6	4.10e6
Np (GeneID 35904)	3	3.61e6	4.04e6	4.10e6
Tango14 (GeneID 33298)	1	3.56e6	4.05e6	4.05e6
pnut (GeneID 35801)	1	3.49e6	3.92e6	3.97e6
Arfrp1 (GeneID 31841)	1	3.69e6	4.12e6	4.37e6
Slc45-1 (GeneID 39055)	1	3.42e6	3.94e6	3.79e6
wisp (GeneID 32152)	1	3.53e6	4.18e6	3.91e6
wisp (GeneID 32152)	2	3.46e6	3.83e6	4.05e6
Srp9 (GeneID 38883)	1	3.52e6	4.03e6	3.97e6
tud (GeneID 37417)	1	3.59e6	4.18e6	3.97e6

Taken from above.
Result for Trax (GeneID 41871) under “viability with MMS, replicate 2”: 3.74e6
Under “viability with MMS, replicate 2”, wisp (GeneID 32152) #2 reads 4.05e6
Result for Arfrp1 (GeneID 31841) under “viability with MMS, replicate 1”: 4.12e6
